The text below walks through data of PubChem BioAssay AID493014 (National Center for Advancing Translational Sciences (NCATS), 2011).

The assay in a line: qHTS Assay to Find Inhibitors of Chronic Active B-Cell Receptor Signaling. The settings on record: ABC-DLBCL IkBa-CBG/CBR reporter, luminescence ratio (green luciferase fused to IkBa over red control in TMD8 lymphoma cells), 4 h. In outline:
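TMD8 ABC-DLBCL cells carrying doxycycline-inducible green luciferase fused to IkappaBalpha plus unfused red luciferase were exposed to compounds (up to 46 uM) for 4 hrs at 37C. Activity came from the overlap-corrected green/red luminescence ratio.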

Where [1] appears, read: measured here: CBR red luminescence, cell number.
Setting [2] is: measured here: IkBa-CBG green luminescence.

The other results are listed elsewhere or left out. These are further read-outs of the screen, such as a control signal, another cell line or another target. No call is given for them. The list favours compounds with an active or inconclusive main result. Potencies come from curve fits of mixed quality, noted in brackets.

In the case of `COC(=O)/C=C/c1ccccc1S(=O)(=O)N(Cc1ccccc1)Cc1ccco1`, the AC50 – broadly, the concentration giving half of the maximal activity seen – reads like this: under setting [1], 17.8 µM [rising, single point]; under setting [2], 22.4 µM [falling, single point].
Consider `O=C(Nc1ccc(F)cc1)Nc1ccc(Oc2ncnc3cc(Cl)ccc23)nc1`, for which, under setting [1], the half-maximal activity concentration (AC50) was 0.1 µM [rising, full curve, poor fit].
On the same count and under the same terms, for `COc1ccc(-c2cc(C(C)=O)c(C)n2CCC(=O)Nc2ccc(C(F)(F)F)cc2)cc1` the value was 17.8 µM [rising, single point].
On the same count and under the same terms, for `CC(C)(C)C(=O)/C=c1\[nH]c(=O)/c(=C\c2ccc(F)cc2)s1` the value was 0.184 µM [falling, full curve, poor fit].
Still for that read-out and setting: in the case of `O=C(O)c1cccc(NC(=S)N/N=C/c2ccccn2)c1` it was 10 µM [falling, partial curve]; in that of `O/N=C/c1cc(Cl)ccc1OCc1ccccc1Cl`, 12.6 µM [rising, single point].
Turning to `Cc1ccc2nc(-c3cccnc3SCC(=O)N3c4ccccc4CC3C)[nH]c2c1` (stereo not given), the concentration at half-maximal activity (AC50) under setting [1] was 0.82 µM [falling, full curve, poor fit].
In the case of `CC(Sc1nc(N2CCOCC2)c2c(c1C#N)CC(C)(C)OC2)C(=O)O` (stereo not given), under setting [1], the AC50 was 1.78 µM [falling, partial curve, poor fit].
`COc1ccc(-c2ccc(=O)n(Cc3cccc([N+](=O)[O-])c3)n2)cc1`: under setting [1], the half-maximal activity concentration (AC50) is 1.12 µM [falling, single point].
With `C=CCOc1ccc(C(=O)Nc2ccc3c(c2)n(C)c(=O)n3C)cc1`, the AC50 by setting is: under setting [1], 22.4 µM [rising, partial curve, poor fit]; under setting [2], 20 µM [falling, single point].
As for `O=C(N/N=C/c1c(-c2ccccc2)[nH]c2ccccc12)c1cccnc1`, the concentration at half-maximal activity (AC50) under setting [1] was 11.2 µM [falling, partial curve].
Still for that read-out and setting: in the case of `C/C(=N\O)C1CC(CC(=O)O)C1(C)C` (stereo not given) it was 4.47 µM [rising, single point].
The same measure, in the same setting: for `CC(=O)Oc1ccccc1-c1nc(/C=C/c2ccccc2)no1` the value was 10 µM [falling, partial curve].
Same read-out and setting: in the case of `COc1ccc2nc(NC(=O)CSC3=NCCS3)sc2c1` it was 22.4 µM [falling, single point]; in that of `CCCC(=O)Nc1ccccc1NC(C)=O`, 0.447 µM [falling, partial curve, poor fit]; in that of `O=C(N/N=C/c1ccco1)c1cc(C2CC2)[nH]n1`, 35.5 µM [falling, partial curve, poor fit].
As for `O=C(C1CCCN(S(=O)(=O)c2ccc(Br)cc2)C1)N1CCOCC1` (stereo not given), the AC50 under setting [1] is 0.112 µM [rising, full curve, poor fit].
On to `CC1=Nc2cc(C(=O)NCCCOC(C)C)ccc2Sc2ccc(C)cc21`, for which the AC50 under setting [2] is 6.31 µM [falling, full curve].
As for `CC(Oc1cccc(F)c1)C(=O)Nc1ccc(N2CCOCC2)cc1` (stereo not given), under setting [1], the concentration at half-maximal activity (AC50) is 29.1 µM [rising, single point].
On the same count and under the same terms, in the case of `COc1ccc(OC)c(/C=N/NC(=O)CSc2nnc(C)n2-c2ccccc2)c1` it was 7.08 µM [falling, partial curve].
The same measure, in the same setting: for `CCC(=O)N1CCN(c2nc3ccc(Br)cc3s2)CC1` the value was 0.562 µM [rising, full curve].
Still for that read-out and setting: for `O/N=C1\CC/C(=N\O)c2nn(-c3ccccc3Cl)nc21` the value was 22.4 µM [falling, single point]; for `Cc1ccc(F)cc1NC(=O)/C=C/c1ccc(S(=O)(=O)N2CCOCC2)cc1`, 0.164 µM [falling, full curve].
As to `CCCSc1nc(=S)n(Cc2ccccc2)c(C)c1C(C)=O`, the half-maximal activity concentration (AC50) is 5.01 µM [rising, single point] under setting [1] and 12.6 µM [falling, single point] under setting [2].
`O=S(=O)(c1ccc2c(c1)nc1n2CCC1)N1CCOCC1`: under setting [1], the concentration at half-maximal activity (AC50) was 14.6 µM [falling, partial curve].
In the case of `Cc1ccc(-n2c3c(cc(C(=O)NC4CCSC4=O)c2=O)C(=O)CCC3)cc1` (stereo not given), the AC50 under setting [1] was 29.1 µM [rising, single point].
The same measure, in the same setting: in the case of `CCOC(=O)c1nnsc1-c1ccc(-c2snnc2C(=O)OCC)cc1` it was 2.82 µM [rising, partial curve, poor fit]; in that of `CCN(Cc1ccccc1)C(=S)Nc1cc(C(=O)OC)ccc1C(=O)OC`, 0.92 µM [rising, full curve, poor fit]; in that of `CN(C)S(=O)(=O)c1ccc(NC=C(C#N)C#N)cc1`, 35.5 µM [falling, single point].
Still for that read-out and setting: for `CCn1cc([N+](=O)[O-])c(C(=O)Nc2nc3ccc(OC)cc3s2)n1` the value was 10 µM [falling, partial curve]; for `c1csc(-c2noc(CN3CCc4sccc4C3)n2)c1`, 0.251 µM [rising, full curve, poor fit]; for `CC(C)(C)NC(=O)c1cc2c(ccc3ccccc32)oc1=O`, 5.01 µM [rising, full curve, poor fit].
On to `O=C(Nc1ccc(Oc2ccccc2)nc1)C1CCCCN1Cc1ccc(O)cc1` (stereo not given), for which the AC50 under setting [1] is 0.562 µM [rising, full curve, poor fit].
Still for that read-out and setting: in the case of `Cc1csc(=Nc2cccnc2)n1CC1CCCCC1` it was 0.82 µM [falling, partial curve, poor fit].
The same measure, in the same setting: for `COC(=O)c1ccc(C#Cc2ccccc2)o1` the value was 0.794 µM [rising, full curve]; for `CN(Cc1ccccc1)C(=O)COc1ccc(Br)cc1Cl`, 0.794 µM [rising, full curve, poor fit].
On to `COC(=O)c1cc(=O)n(-c2ccc(F)cc2)c(=Nc2ccc(F)cc2)s1`, for which the concentration at half-maximal activity (AC50) under setting [1] was 18.4 µM [falling, partial curve, poor fit] and the AC50 under setting [2] was 25.9 µM [falling, single point].
In the case of `CN(C)c1nc(N(C)C)nc(N(C#N)Cc2ccc(Cl)cc2)n1`, under setting [1], the half-maximal activity concentration (AC50) was 25.1 µM [rising, single point].
The same measure, in the same setting: in the case of `Cc1ccc(OCC(=O)NC(=S)Nc2ccc(Br)cn2)cc1` it was 12.6 µM [rising, single point]; in that of `CC(C)Cc1nc(N2CCN(C(=O)c3ccco3)CC2)c(C#N)c2c1CCC2`, 35.5 µM [falling, single point].
Take `COc1cccc(CN2CCN(c3ncccn3)CC2)c1`: the concentration at half-maximal activity (AC50) under setting [1] is 35.5 µM [falling, single point].
